The list shows a part of the results. These are raw signals, not scaled to a control.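 Primary screen: polymyxin B was added at a level permeabilizing Salmonella outer membranes while sparing inner membranes. DMSO wells, both with and without polymyxin B, established maximum growth. Plate-to-plate variation meant each plate was ranked on its own, and the lowest-OD600 compounds were selected as hits.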
Test system: Salmonella enterica serovar Typhimurium SL1344
Experiment: bacterial growth OD600 after 18 h with compound and polymyxin B; higher = more bacterial growth (less inhibition)
Settings: 50 µM, Mueller-Hinton broth

| Compound | bacterial growth OD600 (polymyxin B 1 µg/mL) | bacterial growth OD600 (polymyxin B 0.75 µg/mL) |
| --- | --- | --- |
| Cc1nc2cc(OCc3cc(C(=O)N(C)C(C)c4ccon4)no3)ccc2s1 (configuration not stated) | 0.92 |  |
| Cc1ccc2c(c1)CN(Cc1ccncc1)CC(c1ccsc1)O2 (configuration not stated) |  | 0.005 |
| Cc1nnc(CNC(=O)CC(c2ccccc2)c2ccccc2Cl)[nH]1 (configuration not stated) |  | 0.735 |
| Cc1noc(C)c1CCCNC(=O)c1ccc(N(C)C2CCOC2)nc1 (configuration not stated) | 1.1 |  |
| O=C(CCC1CCN(Cc2c[nH]nc2C2CCCCC2)CC1)NCc1cccnc1 | 0.958 |  |
| O=C(c1cn(CC2CCCO2)nn1)N1CCN(Cc2ccc3c(c2)OCO3)CC1 (configuration not stated) | 0.898 |  |
| O=C(Nc1cccc(N2CCNC2=O)c1)C1CC12CCN(C(=O)c1ccccc1Cl)CC2 (configuration not stated) |  | 0.826 |
| O=C(NCC1OCCc2ccccc21)c1coc(COc2ccccc2)n1 (configuration not stated) |  | 0.002 |
| O=C([C@@H]1C[C@H]1c1ccccc1)N1Cc2ccccc2OC(c2ccccc2)C1 (some centres not stated) |  | 0.003 |
| CC(C)/C=C/C(=O)N1CCC(C2(c3ccccn3)NC(=O)N(CCc3cccs3)C2=O)CC1 (configuration not stated) |  | 0.931 |
| COC(=O)c1ccccc1C(=O)N1CCc2c(cnc(C)c2CNS(=O)(=O)c2cccs2)C1 |  | 0.88 |
| CCCC1(C2CCN(C(=O)/C(F)=C/c3ccccc3)CC2)NC(=O)N(Cc2ccco2)C1=O (configuration not stated) |  | 0.827 |
| CC(=O)N1CCN(c2ncccc2CNc2ncccc2C(F)(F)F)CC1 | 0.911 |  |
| CCc1cc(CNC(=O)CC(c2ccccc2)c2ccc3c(c2)OCO3)on1 (configuration not stated) | 0.94 |  |
| CN(Cc1nc(Cc2ccccc2Cl)no1)C(C1CC1)C1CC1 | 0.605 |  |
| O=C(CC1=CCCCC1)NC1CC(=O)N(Cc2ccc(F)cc2)C1 (configuration not stated) | 0.917 |  |

Another view of two compounds above.
O=C(CCC1CCN(Cc2c[nH]nc2C2CCCCC2)CC1)NCc1cccnc1
  bacterial growth OD600 (polymyxin B 1 µg/mL): 0.958
O=C(c1cn(CC2CCCO2)nn1)N1CCN(Cc2ccc3c(c2)OCO3)CC1 (configuration not stated)
  bacterial growth OD600 (polymyxin B 1 µg/mL): 0.898

(list continues)

| Compound | bacterial growth OD600 (polymyxin B 1 µg/mL) | bacterial growth OD600 (polymyxin B 0.75 µg/mL) |
| --- | --- | --- |
| O=C(C1=CCCC1)N1CCC(C2(c3ccccn3)NC(=O)N(CCc3cccs3)C2=O)CC1 (configuration not stated) |  | 0.818 |
| O=C(NC1CC1)C1CCC(=O)N(Cc2cccc(C(F)(F)F)c2)C1 (configuration not stated) | 0.832 |  |
| Cc1cccc(CN2CCCC3(CCN(C(=O)CCc4c(C)nn(C)c4C)C3)C2)c1 (configuration not stated) | 0.895 |  |
| Cc1cc(C)n(CCN(C)C(=O)CC2(c3ccccc3C)CC(=O)N(Cc3cccnc3)C2=O)n1 (configuration not stated) |  | 0.824 |
| C=CCO[C@H]1[C@H](NC(=O)CSC)c2ccccc2C12CCN(Cc1cccc(OC)c1OC)CC2 |  | 0.893 |
| COc1ccc(CN2CCC3(CC2)c2ccccc2[C@@H](NC(=O)c2ccco2)[C@@H]3OC)c(F)c1 |  | 0.855 |
| O=C(C[C@@H]1C[C@@H]2C=C[C@H]1C2)NCc1cccnc1-n1cnc2ccccc21 | 0.883 |  |
| Cc1cc(C(=O)N(CCc2ccccc2)CC2CCCN(C)C2)nn1C (configuration not stated) | 0.863 |  |
| COC(=O)C1CCN(Cc2nc(-c3ccc(C(F)(F)F)cc3)oc2C)CC1 |  | 0.731 |
| CCOC(=O)N1CCN(C(=O)CC(c2cccc(O)c2)c2ccccc2O)CC1 (configuration not stated) | 0.939 |  |
| COc1cccc(OCc2nc(C(=O)NCc3cc(F)ccc3C)co2)c1 | 0.798 |  |
| O=C(c1ccnnc1)N1CCC(C2CCN(Cc3cccc(F)c3F)CC2)C1 (configuration not stated) |  | 0.843 |
| C#CCN(C(=O)CCC1(Cc2ccc(OC)c3ccccc23)CCC(=O)N1)C1CCCCC1 (configuration not stated) |  | 0.545 |
| O=C(NCC1CC(Cc2ccc(F)cc2)=NO1)c1cc(F)c(F)cc1F (configuration not stated) |  | 0.844 |
| CN(C)C(=O)N1CCC(C(=O)N2CCCC(N(C)CCc3ccccc3)C2)CC1 (configuration not stated) | 1.07 |  |
| CCCNC(=O)N(C)CC1CCCN(CCc2ccccc2OC)C1 (configuration not stated) | 1.04 |  |

From the supplement of paper PMC12889115
